Measurements from publication PMC4043117.
These are yes or no findings as the source states them, for the method shown. In cells and extracts the contact can be indirect. Some binding calls cover weakened binding; strength is not graded here. Tags and fused reporters may be left off the sequences shown. Values belong to the binder of their own block, whether it stands above or below them.

Tests used:
Mis16-Myc (S. pombe) = target: T1, Mis16-Myc (S. pombe) (UniProt O94244); experiment: co-IP; 2 g pulverized S. pombe cells expressing the epitope-tagged proteins; anti-GFP, anti-Myc or anti-HA antibody on Protein G Dynabeads; western analysis
T1 sequence: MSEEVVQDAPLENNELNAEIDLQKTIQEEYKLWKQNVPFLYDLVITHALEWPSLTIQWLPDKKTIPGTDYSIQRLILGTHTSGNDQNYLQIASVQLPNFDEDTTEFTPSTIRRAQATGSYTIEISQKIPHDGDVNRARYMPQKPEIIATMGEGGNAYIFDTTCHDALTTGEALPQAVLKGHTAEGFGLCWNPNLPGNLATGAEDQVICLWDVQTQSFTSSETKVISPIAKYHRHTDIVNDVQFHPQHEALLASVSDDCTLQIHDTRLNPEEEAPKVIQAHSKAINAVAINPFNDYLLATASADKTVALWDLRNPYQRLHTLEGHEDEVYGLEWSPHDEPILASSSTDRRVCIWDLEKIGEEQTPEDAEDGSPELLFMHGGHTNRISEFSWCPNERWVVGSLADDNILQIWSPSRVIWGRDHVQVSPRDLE

GST-Mis18 (S. pombe) = target: T2, GST-Mis18 (S. pombe) (UniProt Q9P802); experiment: pull-down; GST pulldown on glutathione agarose from lysates of E. coli co-expressing the two proteins; Coomassie-type stained gel
T2 sequence: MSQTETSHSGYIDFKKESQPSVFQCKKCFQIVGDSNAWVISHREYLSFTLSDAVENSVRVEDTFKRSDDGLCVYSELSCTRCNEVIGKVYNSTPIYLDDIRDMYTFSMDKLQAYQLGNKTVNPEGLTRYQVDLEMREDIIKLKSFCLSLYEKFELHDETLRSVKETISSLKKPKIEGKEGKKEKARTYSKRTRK

binding (Mis16-Myc (S. pombe)): binds
B1: Hat1-HA (protein, UniProt Q9UTM7 1-378)
chain: MSAVDEWVHNANECIEIVQVNEKHEKDCQYHPSNTYAIFGDAEVIYGYKDLNVTITYECPLMVPKLEISYSERLAPDSGVEPTDIEGTLNTYLKDRSIKVEGNSFDVHSANSIHNYSFNGKTFKILQATVLEASEIMQHLQIFSLFFIEGGSFIDLNDPRWMVYLLYETTEDDYCLRGYCTVYKYYKWDKLIHDGIRARISQFVILPPFQHQGHGSQLYNAIVSTFLKNPKILDFTVEDASEAFDSLRDHCDYKRLLSMGIFSEPDFHPSLSRQWINSKIAETKLTQRQFSRCCELAFTTKLKKLSLLERKSVRLGIKERIFRQNLDVLLQLDKSERIEKIHNAYENQFDEYKQIVKKLPKLKEDSPRKRQKLAQSSS

binding (GST-Mis18 (S. pombe)): binds weakly
B2: 6xHis-Mis16 (protein, UniProt O94244 1-430)
chain: T1 sequence
